Reference: BigSolDB 2.1

CN(C)C(=N)N=C(N)N.Cl
solubility (mole fraction)
Conditions	283.15 K	288.15 K	293.15 K	298.15 K	303.15 K	308.15 K	313.15 K	318.15 K	323.15 K
in ethanol	0.0013	0.00147	0.0016	0.00183	0.00212	0.00225	0.00245	0.00275	0.00343
in methanol	0.00898	0.01	0.0114	0.0127	0.0141	0.0157	0.0175	0.0229	0.0226
in water	0.0292	0.0338	0.0378	0.0419	0.0473	0.0514	0.0574	0.0626	0.0683
